Experimental data as given in the supplement of paper PMC10849652.
The list shows a part of the results.

The chains behind the UniProt entries cited, without tags or fusion partners. Where a name states a change or a piece, a line headed by the entry shows the natural chain unless it says otherwise.
UniProt O75717: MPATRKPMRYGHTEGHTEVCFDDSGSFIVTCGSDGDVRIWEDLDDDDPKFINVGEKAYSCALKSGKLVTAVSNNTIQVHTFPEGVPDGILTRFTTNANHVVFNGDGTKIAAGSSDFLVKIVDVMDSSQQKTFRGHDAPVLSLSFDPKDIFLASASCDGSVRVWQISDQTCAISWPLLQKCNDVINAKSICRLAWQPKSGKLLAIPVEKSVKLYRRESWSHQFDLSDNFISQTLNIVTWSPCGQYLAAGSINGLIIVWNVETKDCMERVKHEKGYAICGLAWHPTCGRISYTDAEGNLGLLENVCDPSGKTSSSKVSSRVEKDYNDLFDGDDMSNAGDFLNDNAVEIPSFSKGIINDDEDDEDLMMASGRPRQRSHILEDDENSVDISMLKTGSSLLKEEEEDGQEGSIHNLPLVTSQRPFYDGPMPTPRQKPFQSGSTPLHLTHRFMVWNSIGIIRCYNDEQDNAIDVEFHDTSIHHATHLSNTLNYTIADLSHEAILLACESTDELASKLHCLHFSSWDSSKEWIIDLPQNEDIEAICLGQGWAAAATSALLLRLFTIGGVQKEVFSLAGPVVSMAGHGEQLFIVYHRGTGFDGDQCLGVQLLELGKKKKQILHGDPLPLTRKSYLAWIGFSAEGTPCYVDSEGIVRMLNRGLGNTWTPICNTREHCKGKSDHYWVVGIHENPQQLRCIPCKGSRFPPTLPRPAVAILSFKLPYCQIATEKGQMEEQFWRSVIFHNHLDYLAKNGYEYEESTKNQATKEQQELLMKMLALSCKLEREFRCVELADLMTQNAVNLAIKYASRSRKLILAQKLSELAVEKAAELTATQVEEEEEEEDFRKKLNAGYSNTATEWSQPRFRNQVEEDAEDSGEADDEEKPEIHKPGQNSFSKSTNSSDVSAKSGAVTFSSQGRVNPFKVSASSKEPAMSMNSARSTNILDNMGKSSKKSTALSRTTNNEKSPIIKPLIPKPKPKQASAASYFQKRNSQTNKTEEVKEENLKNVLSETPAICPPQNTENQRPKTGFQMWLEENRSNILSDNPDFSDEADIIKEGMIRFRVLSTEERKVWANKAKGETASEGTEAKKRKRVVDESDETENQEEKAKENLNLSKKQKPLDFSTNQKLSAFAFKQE
UniProt Q9Y6W5, whole entry, looked up: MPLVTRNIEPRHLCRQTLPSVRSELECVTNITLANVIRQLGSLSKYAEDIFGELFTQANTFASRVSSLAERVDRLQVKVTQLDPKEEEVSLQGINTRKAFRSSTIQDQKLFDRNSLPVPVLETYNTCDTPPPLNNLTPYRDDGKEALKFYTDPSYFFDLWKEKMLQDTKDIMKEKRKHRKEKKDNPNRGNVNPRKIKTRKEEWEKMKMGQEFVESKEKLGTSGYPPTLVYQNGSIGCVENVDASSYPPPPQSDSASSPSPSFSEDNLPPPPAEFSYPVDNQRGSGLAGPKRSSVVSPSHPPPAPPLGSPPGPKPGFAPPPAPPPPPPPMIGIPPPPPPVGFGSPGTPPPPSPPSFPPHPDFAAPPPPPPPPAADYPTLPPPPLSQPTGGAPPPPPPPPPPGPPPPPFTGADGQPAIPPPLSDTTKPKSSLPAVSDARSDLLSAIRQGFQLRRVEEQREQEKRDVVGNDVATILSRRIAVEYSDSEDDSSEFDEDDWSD
UniProt Q9BUR4: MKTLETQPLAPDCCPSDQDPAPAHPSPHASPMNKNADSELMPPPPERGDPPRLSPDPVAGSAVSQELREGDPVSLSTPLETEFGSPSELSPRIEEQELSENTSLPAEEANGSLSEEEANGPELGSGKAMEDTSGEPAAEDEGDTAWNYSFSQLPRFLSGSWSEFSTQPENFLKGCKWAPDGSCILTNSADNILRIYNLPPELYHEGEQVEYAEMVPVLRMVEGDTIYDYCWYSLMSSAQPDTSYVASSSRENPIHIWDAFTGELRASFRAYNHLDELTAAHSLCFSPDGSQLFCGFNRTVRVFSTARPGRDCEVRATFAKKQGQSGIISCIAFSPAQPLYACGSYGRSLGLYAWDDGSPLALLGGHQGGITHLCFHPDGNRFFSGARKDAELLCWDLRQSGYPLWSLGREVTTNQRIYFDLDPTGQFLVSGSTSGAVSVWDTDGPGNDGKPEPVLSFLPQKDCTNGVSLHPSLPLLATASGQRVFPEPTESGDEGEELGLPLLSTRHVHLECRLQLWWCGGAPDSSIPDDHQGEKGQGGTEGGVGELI
UniProt O15213: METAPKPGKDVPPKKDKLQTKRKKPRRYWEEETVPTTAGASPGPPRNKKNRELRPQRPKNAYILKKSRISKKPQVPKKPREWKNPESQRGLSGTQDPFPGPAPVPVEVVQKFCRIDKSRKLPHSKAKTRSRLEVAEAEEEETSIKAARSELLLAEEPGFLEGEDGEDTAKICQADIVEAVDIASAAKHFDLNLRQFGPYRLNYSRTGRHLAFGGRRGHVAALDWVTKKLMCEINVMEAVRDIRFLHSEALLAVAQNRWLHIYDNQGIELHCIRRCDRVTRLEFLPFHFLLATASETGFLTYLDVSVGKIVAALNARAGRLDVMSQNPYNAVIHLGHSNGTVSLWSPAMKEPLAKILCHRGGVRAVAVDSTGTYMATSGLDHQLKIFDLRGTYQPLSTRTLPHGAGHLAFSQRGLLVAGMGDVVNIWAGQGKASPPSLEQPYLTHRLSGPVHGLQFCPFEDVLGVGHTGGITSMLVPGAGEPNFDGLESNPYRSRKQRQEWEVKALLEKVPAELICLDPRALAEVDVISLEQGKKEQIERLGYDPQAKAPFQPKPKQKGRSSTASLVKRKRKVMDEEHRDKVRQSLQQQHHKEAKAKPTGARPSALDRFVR
UniProt Q9UNX4: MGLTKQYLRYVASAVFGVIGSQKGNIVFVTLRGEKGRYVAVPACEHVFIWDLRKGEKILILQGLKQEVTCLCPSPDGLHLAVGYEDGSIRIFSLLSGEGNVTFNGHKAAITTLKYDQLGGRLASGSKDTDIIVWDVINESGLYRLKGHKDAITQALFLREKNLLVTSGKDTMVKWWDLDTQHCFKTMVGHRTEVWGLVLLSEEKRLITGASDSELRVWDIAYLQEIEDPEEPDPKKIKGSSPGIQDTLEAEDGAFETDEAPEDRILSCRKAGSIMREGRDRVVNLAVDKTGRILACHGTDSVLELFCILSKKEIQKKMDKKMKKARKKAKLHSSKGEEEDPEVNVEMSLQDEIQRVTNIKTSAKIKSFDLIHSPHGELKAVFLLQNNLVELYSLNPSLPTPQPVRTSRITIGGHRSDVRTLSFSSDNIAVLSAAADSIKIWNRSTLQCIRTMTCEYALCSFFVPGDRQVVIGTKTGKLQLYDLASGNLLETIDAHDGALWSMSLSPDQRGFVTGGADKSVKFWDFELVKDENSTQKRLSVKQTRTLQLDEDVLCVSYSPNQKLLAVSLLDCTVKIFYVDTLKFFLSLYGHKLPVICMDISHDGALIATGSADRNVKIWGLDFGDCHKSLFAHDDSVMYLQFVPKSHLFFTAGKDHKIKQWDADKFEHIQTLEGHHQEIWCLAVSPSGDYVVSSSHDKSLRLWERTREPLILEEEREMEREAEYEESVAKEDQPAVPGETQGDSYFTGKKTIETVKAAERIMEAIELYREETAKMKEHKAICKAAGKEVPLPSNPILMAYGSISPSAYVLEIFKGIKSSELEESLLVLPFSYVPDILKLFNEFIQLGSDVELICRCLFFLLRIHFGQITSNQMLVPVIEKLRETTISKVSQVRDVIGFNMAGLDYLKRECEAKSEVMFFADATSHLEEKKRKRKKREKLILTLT
UniProt P40337, whole entry, looked up: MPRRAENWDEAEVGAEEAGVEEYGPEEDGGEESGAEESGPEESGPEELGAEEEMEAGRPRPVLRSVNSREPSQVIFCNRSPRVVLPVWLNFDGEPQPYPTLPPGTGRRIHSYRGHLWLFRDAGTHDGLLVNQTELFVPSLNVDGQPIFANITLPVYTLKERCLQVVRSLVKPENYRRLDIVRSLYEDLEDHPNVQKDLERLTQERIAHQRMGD
UniProt Q9H4A3: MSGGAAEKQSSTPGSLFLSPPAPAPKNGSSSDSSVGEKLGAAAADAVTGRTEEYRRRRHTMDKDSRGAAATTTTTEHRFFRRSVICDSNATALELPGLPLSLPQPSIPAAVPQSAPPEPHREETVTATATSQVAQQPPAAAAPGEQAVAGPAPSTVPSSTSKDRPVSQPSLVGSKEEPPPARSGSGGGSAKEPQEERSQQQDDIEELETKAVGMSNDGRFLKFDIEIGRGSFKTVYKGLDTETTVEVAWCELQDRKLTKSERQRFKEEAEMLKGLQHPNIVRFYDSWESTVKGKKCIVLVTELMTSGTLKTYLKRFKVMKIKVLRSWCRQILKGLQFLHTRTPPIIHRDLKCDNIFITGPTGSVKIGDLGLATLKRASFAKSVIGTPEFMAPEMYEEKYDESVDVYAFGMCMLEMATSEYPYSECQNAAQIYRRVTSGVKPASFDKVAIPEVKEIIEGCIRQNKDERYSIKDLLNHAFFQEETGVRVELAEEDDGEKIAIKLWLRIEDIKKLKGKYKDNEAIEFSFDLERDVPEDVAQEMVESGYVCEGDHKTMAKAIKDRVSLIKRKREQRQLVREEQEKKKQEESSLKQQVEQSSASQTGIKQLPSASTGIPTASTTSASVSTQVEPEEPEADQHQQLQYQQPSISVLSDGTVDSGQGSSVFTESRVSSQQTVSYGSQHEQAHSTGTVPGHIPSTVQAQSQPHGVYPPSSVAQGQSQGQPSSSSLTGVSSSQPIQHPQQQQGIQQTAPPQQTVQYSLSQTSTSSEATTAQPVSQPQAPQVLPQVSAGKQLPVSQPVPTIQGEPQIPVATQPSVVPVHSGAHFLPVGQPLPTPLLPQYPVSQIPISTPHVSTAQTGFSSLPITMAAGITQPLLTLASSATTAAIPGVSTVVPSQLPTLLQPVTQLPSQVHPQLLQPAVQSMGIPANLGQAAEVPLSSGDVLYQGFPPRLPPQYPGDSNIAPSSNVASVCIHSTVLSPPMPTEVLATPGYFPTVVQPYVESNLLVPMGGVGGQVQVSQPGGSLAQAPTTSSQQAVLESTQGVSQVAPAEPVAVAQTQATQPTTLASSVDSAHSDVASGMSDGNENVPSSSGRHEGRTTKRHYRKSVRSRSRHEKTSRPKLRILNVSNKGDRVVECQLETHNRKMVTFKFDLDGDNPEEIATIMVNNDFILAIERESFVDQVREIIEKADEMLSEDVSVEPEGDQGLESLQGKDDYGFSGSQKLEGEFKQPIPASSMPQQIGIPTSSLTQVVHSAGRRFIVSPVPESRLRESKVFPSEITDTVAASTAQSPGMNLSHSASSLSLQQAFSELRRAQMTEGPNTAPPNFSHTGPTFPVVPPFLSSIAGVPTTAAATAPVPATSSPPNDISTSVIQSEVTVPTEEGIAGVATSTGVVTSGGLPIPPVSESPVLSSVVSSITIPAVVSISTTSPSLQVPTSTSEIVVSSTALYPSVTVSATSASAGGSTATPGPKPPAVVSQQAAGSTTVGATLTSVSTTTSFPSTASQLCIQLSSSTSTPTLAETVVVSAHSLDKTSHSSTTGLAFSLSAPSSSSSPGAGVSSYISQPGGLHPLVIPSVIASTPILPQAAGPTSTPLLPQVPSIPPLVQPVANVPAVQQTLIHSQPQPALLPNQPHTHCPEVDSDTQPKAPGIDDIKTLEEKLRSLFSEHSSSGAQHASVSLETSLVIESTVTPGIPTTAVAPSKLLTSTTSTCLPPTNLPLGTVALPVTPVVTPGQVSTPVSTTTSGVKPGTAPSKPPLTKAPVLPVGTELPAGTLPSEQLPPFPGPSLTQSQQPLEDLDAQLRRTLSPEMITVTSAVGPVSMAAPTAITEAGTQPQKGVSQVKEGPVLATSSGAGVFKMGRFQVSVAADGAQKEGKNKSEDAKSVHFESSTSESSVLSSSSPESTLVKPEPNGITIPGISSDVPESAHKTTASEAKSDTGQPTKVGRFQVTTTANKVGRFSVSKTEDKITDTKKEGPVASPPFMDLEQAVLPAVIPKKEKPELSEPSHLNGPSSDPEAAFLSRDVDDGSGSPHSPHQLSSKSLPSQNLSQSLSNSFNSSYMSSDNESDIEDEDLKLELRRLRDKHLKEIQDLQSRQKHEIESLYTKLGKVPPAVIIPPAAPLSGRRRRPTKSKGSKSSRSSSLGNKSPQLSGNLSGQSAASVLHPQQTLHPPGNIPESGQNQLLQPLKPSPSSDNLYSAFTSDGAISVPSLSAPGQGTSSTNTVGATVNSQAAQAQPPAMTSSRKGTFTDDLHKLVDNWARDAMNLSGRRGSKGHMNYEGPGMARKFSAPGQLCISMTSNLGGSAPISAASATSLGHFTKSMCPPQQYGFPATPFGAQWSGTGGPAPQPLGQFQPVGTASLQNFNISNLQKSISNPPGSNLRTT
UniProt Q9UEU0: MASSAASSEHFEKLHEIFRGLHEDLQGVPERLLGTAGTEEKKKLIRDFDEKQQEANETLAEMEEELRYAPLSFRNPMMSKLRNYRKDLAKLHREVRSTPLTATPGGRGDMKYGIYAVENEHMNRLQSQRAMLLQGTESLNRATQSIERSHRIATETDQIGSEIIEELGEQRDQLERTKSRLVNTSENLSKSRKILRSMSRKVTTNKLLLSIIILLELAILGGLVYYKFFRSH

Legend:
Assay in all cases: log2 fold change, soluble protein after heating vs DMSO (PISA); higher = thermal stabilisation; K562 cells, 10 uM, 30 min; active = over 0.2 and 3.5 SD of the protein, either way, in both replicates (recomputed)
[1] = compound: CC1=C(C=C(C=C1)NC(=O)C2=CC(=CC=C2)C(C)(C)C#N)NC3=CC4=C(C=C3)N=CN(C4=O)C
How it was run: (§1)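 Values are thermal stability changes relative to control samples and are taken from duplicates. They are stated as log2 fold changes. Before quantification by TMTpro 16plex LC-MS/MS with equalised channel sums, K562 cells at 2×10^6 cells/mL were treated with 10 μM compound for 30 min, heated in aliquots for 3 min across 48°C-58°C, pooled, extracted in PBS with 0.5% NP-40 at 4°C, and centrifuged at 21,000xg for 90 min to give the soluble supernatant.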

[2] = compound: CC1=C(C=C(C=C1)NC(=O)C2=CC(=CC=C2)N(C)C)NC(=O)C3=CC=C(C=C3)O
How it was run: as §1

[3] = compound: CC1=CC=C(C=C1)SC2=C3C=C(SC3=CN=C2)C(=O)N
How it was run: as §1

[4] = compound: CC1=NC(=CC=C1)C2=C(N=C(N2)C(C)(C)C)C3=CC4=NC=CN=C4C=C3
How it was run: as §1

[5] = compound: CCCCN(Cc1ccc(C(=O)NO)cc1)C(=O)Nc1ccccc1 [Nexturastat A]
How it was run: as §1

[6] = compound: CCCS(=O)(=O)Nc1ccc(F)c(C(=O)c2c[nH]c3ncc(-c4ccc(Cl)cc4)cc23)c1F [vemurafenib]
How it was run: as §1

[7] = compound: CCCS(=O)(=O)Nc1ccc(F)c(C(=O)c2c[nH]c3ncc(Cl)cc23)c1F
How it was run: as §1

[8] = compound: CCCc1cc(C)[nH]c(=O)c1CNC(=O)c1cc(-c2ccnc(N3CCN(C)CC3)c2)cc2c1cnn2C(C)C
How it was run: as §1

[9] = compound: CCN(CC)Cc1ccc2cc(COC(=O)Nc3ccc(C(=O)NO)cc3)ccc2c1 [givinostat]
How it was run: as §1

[10] = compound: CCN(CCCOc1ccc2c(Nc3cc(CC(=O)Nc4cccc(F)c4)[nH]n3)ncnc2c1)CCOP(=O)(O)O [barasertib]
How it was run: as §1

Measured: log2 fold change

VPS37A (UniProt Q8NEZ2)
inactive: [1] -0.015 | [2] -0.171 | [3] 0.019 | [4] 0.001 | [5] -0.048 | [6] 0.128 | [7] 0.054 | [8] 0.014 | [9] 0.14 | [10] 0.076

WDHD1 (UniProt O75717)
inactive: [1] 0.057 | [2] -0.043 | [3] 0.013 | [4] 0.072 | [5] -0.053 | [6] 0.066 | [7] 0.095 | [8] 0.022 | [9] 0.053 | [10] 0.055

WBP2 (UniProt Q969T9)
inactive: [1] -0.035 | [2] -0.009 | [3] -0.002 | [4] 0.024 | [5] 0.019 | [6] 0.026 | [7] -0.029 | [8] 0.03 | [9] -0.007 | [10] 0

WDR1 (UniProt O75083)
inactive: [1] 0.042 | [2] -0.017 | [3] -0.012 | [4] 0.044 | [5] -0.022 | [6] 0.009 | [7] 0.01 | [8] -0.02 | [9] -0.068 | [10] 0.003

VPS36 (UniProt Q86VN1)
inactive: [1] 0.007 | [2] -0.013 | [3] 0.029 | [4] 0.083 | [5] -0.089 | [6] 0.01 | [7] 0.011 | [8] -0.009 | [9] 0.034 | [10] 0.021

VPS4B (UniProt O75351)
inactive: [1] -0.02 | [2] -0.027 | [3] -0.005 | [4] 0.067 | [5] -0.111 | [6] 0.01 | [7] 0.023 | [8] 0.012 | [9] 0.031 | [10] 0.023

VPS37B (UniProt Q9H9H4)
inactive: [1] 0.002 | [2] -0.046 | [3] 0.253 | [4] 0.028 | [5] 0.009 | [6] 0.173 | [7] 0.156 | [8] 0.017 | [9] 0.055 | [10] 0.034

WASF2 (UniProt Q9Y6W5)
inactive: [1] 0.007 | [2] 0.003 | [3] -0.001 | [4] 0.024 | [5] 0.131 | [6] -0.02 | [7] -0.019 | [8] 0.014 | [9] -0.002 | [10] -0.02

WASHC2A (UniProt Q641Q2)
inactive: [1] -0.053 | [2] -0.012 | [3] -0.039 | [4] -0.014 | [5] 0.004 | [6] -0.041 | [7] -0.005 | [8] 0.085 | [9] 0.004 | [10] 0.032

WRAP53 (UniProt Q9BUR4)
inactive: [1] 0.039 | [2] 0 | [3] -0.144 | [4] -0.069 | [5] 0.011 | [6] -0.075 | [7] -0.114 | [8] 0.076 | [9] 0.015 | [10] 0.037

WDR77 (UniProt Q9BQA1)
inactive: [1] 0.026 | [2] -0.008 | [3] -0.003 | [4] 0.047 | [5] -0.019 | [6] 0.051 | [7] 0.025 | [8] 0.041 | [9] -0.09 | [10] 0.006

WDR46 (UniProt O15213)
inactive: [1] 0.039 | [2] -0.021 | [3] -0.001 | [4] -0.102 | [5] 0.216 | [6] -0.135 | [7] -0.026 | [8] 0.136 | [9] -0.05 | [10] -0.064

VRK3 (UniProt Q8IV63)
inactive: [1] 0.097 | [2] -0.211 | [3] 0.018 | [4] 0.115 | [5] 0.006 | [6] 0.067 | [7] 0.032 | [8] -0.066 | [9] 0.096 | [10] 0.099

WDR7 (UniProt Q9Y4E6)
inactive: [1] -0.029 | [2] -0.008 | [3] -0.016 | [4] -0.025 | [5] -0.216 | [6] 0.091 | [7] 0.083 | [8] 0.202 | [9] 0.067 | [10] 0.03

WDR3 (UniProt Q9UNX4)
inactive: [1] 0.108 | [2] -0.002 | [3] -0.102 | [4] -0.096 | [5] 0.169 | [6] -0.061 | [7] -0.049 | [8] 0.175 | [9] 0.103 | [10] -0.039

VHL (UniProt P40337)
inactive: [1] 0.181 | [2] 0.05

VPS39 (UniProt Q96JC1)
inactive: [1] 0.049 | [2] -0.015 | [3] 0.011 | [4] 0.031 | [5] 0.014 | [6] 0.041 | [7] 0.059 | [8] -0.029 | [9] 0.019 | [10] 0.053

WDR59 (UniProt Q6PJI9)
inactive: [1] 0.019 | [2] -0.066 | [3] -0.058 | [4] -0.004 | [5] 0.238 | [6] -0.052 | [7] -0.06 | [8] 0.097 | [9] 0.015 | [10] 0.019

VPS45 (UniProt Q9NRW7)
inactive: [1] -0.033 | [2] -0.052 | [3] 0.011 | [4] 0.008 | [5] 0.061 | [6] 0.041 | [7] 0.048 | [8] 0.042 | [9] 0.058 | [10] -0.027

WASH2P (UniProt Q6VEQ5)
inactive: [1] -0.001 | [2] -0.034 | [3] 0.019 | [4] 0 | [5] 0.139 | [6] 0.03 | [7] -0.01 | [8] 0.026 | [9] -0.007 | [10] 0.043

VMP1 (UniProt Q96GC9)
inactive: [1] 0.18 | [2] -0.031 | [3] 0.011 | [4] -0.006 | [5] 0.033 | [6] -0.001 | [7] -0.038 | [8] -0.098 | [9] -0.031 | [10] -0.029

Two records picked at random from the list so far:
WASF2 (UniProt Q9Y6W5)
inactive: [1] 0.007 | [2] 0.003 | [3] -0.001 | [4] 0.024 | [5] 0.131 | [6] -0.02 | [7] -0.019 | [8] 0.014 | [9] -0.002 | [10] -0.02

VRK3 (UniProt Q8IV63)
inactive: [1] 0.097 | [2] -0.211 | [3] 0.018 | [4] 0.115 | [5] 0.006 | [6] 0.067 | [7] 0.032 | [8] -0.066 | [9] 0.096 | [10] 0.099

(continued)

WNK1 isoform 7 (UniProt Q9H4A3)
inactive: [1] -0.047 | [2] 0.426 | [3] -0.006 | [4] -0.019 | [5] -0.03 | [6] -0.023 | [7] 0.004 | [8] -0.006 | [9] 0.03 | [10] 0.032

VTI1B (UniProt Q9UEU0)
inactive: [1] -0.038 | [2] 0.006 | [3] -0.008 | [4] -0.014 | [5] 0.036 | [6] -0.03 | [7] 0.009 | [8] -0.034 | [9] -0.04 | [10] -0.007

WDTC1 (UniProt Q8N5D0)
inactive: [1] -0.093 | [2] -0.133 | [3] 0.023 | [4] -0.188 | [5] 0.043 | [6] 0.008 | [7] 0.08 | [8] -0.041 | [9] 0.113 | [10] -0.011

VTI1A (UniProt Q96AJ9)
inactive: [1] -0.039 | [2] 0.015 | [3] 0.011 | [4] 0.095 | [5] -0.023 | [6] -0.014 | [7] -0.035 | [8] 0.052 | [9] -0.013 | [10] -0.009

VPS29 isoform 2 (UniProt Q9UBQ0)
inactive: [1] 0 | [2] -0.001 | [3] -0.003 | [4] 0.024 | [5] -0.058 | [6] -0.003 | [7] 0.009 | [8] -0.039 | [9] -0.046 | [10] 0.013

VPS52 (UniProt Q8N1B4)
inactive: [1] -0.071 | [2] -0.001 | [3] -0.009 | [4] 0.005 | [5] 0.079 | [6] 0.023 | [7] 0.006 | [8] 0.048 | [9] -0.004 | [10] 0.054

VDAC3 (UniProt Q9Y277)
inactive: [1] 0.005 | [2] -0.003 | [3] 0.026 | [4] -0.028 | [5] -0.012 | [6] -0.029 | [7] 0.002 | [8] -0.038 | [9] -0.012 | [10] -0.017

WDR18 (UniProt Q9BV38)
inactive: [1] -0.042 | [2] 0.08 | [3] 0.016 | [4] 0.014 | [5] -0.035 | [6] 0.04 | [7] -0.003 | [8] 0.004 | [9] -0.025 | [10] 0.013

WASHC4 (UniProt Q2M389)
inactive: [1] 0.019 | [2] -0.037 | [3] 0 | [4] 0.035 | [5] -0.007 | [6] -0.008 | [7] -0.088 | [8] 0.03 | [9] 0.103 | [10] 0.035
